This is one part of the list. Values are raw readings; no control value is given beside them.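 Primary screen: polymyxin B was added at a level permeabilizing Salmonella outer membranes while sparing inner membranes. DMSO wells, both with and without polymyxin B, established maximum growth. Plate-to-plate variation meant each plate was ranked on its own, and the lowest-OD600 compounds were selected as hits.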
Test system: Salmonella enterica serovar Typhimurium SL1344
Assay: bacterial growth OD600 after 18 h with compound and polymyxin B; higher = more bacterial growth (less inhibition)
Conditions: 50 µM, Mueller-Hinton broth

| SMILES | bacterial growth OD600 (polymyxin B 1 µg/mL) | bacterial growth OD600 (polymyxin B 0.75 µg/mL) |
| --- | --- | --- |
| OCC1(Cc2ccccc2)CCN(Cc2ccccc2-c2ccco2)CC1 | 0.934 | – |
| Cc1cc(CN(C)C(=O)c2cc(Cn3ccc4ccccc43)[nH]n2)on1 | 0.886 | – |
| CC(NC(=O)CCC1(Cc2ccco2)CCC(=O)N1)c1cnn(-c2ccccc2)c1 (centres undefined) | – | 0.849 |
| Cc1ccc(CN2CCC(CN(C)Cc3c[nH]nc3-c3ccc(F)cc3)CC2)o1 | 0.843 | – |
| C/C(=C\c1ccco1)CN1CCC(N2CCC(C(=O)NCc3ccccn3)CC2)CC1 | 0.893 | – |
| COc1ccc(CNC(=O)CCC2CCCN(CCCC(F)(F)F)C2)c(OC)c1 (centres undefined) | 1.11 | – |
| CCn1cc(C(=O)N2CCCC(N3CCN(c4cccc(C(F)(F)F)c4)CC3)C2)cn1 (centres undefined) | 0.913 | – |
| CCOc1ccc2nc(CN3CC[C@@H](N4CCOCC4)[C@H](O)C3)ccc2c1 | – | 0.803 |
| COc1ccc(-c2ccccc2NC(=O)C2CCCN(CC=C(C)C)C2)cc1 (centres undefined) | – | 0.971 |
